Source: PubChem BioAssay AID1347075 (National Center for Advancing Translational Sciences (NCATS), 2019)
Values joined by “and” are separate entries in the source; they are usually repeats but may differ in a detail not shown here. Equal entries are not always repeated. Among all 400,000 compounds or so, about 5,500 (1.4%) were called active. This list was built around the results that the source calls inconclusive (neither active nor inactive); the mix of calls is not that of the screen. Calls follow the shape of the dose curve; as a rule, active = well fitted cell-killing curve with a large enough effect; inconclusive = small, poorly fitted or top-dose-only effect, or effect the other way; inactive = flat fitted curve, though single readings scatter. Where the call is inconclusive, the potency comes from a doubtful curve fit.

Assay: qHTS assay for MDR1-selective chemotherapeutics: Primary screen using the parental adenocarcinoma cell KB-3-1; also: nearly all actives have a fitted effect of over 60% in size
Details: KB-3-1 viability, CellTiter-Glo ATP luminescence, 72 h; activity change, negative = cytotoxic: at 46.1 µM (top of the series)
Summary of the method: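 Cytotoxicity in the drug-sensitive parental line KB-3-1 was scored as loss of CellTiter-Glo luminescence following 72 h incubation with compound. Values come from curve fitting of normalized concentration-response data.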
% is scaled to controls: 0 for no effect and ±100 for the full control effect; potency is read from the fitted curve at half-maximal effect.

Compound	Potency	activity change, negative = cytotoxic
COCCCNC(=S)NNC(=O)C1CC1c1ccc(C(C)(C)C)cc1 (stereo not given)	inconclusive: 18.4 µM [cytotoxic, single point]	–
O=C(NN=Cc1ccc(N2CCOCC2)s1)c1ccc([N+](=O)[O-])cc1	inconclusive: 29.1 µM [cytotoxic, single point]	–
COc1ccc(CNC(=O)COC(=O)c2ccccc2OCC(=O)Nc2ccc(SC(F)F)cc2)cc1	inconclusive: 32.6 µM [cytotoxic, partial curve, poor fit]	–
Cc1cc(C(=O)CSc2nc3ccccc3c(=O)n2C)c(C)n1Cc1ccc2c(c1)OCO2	inconclusive: 0.82 µM [cytotoxic, full curve]	–
Cc1ccc(-n2nnc(-c3nccs3)n2)cc1	–	inactive: 0%
Cc1ccsc1C(=O)N1CC(=O)Nc2ccccc21	inconclusive: 29.1 µM [cytotoxic, single point]	–
O=C(COC(=O)c1ccccc1OCc1cccc(Br)c1)Nc1ccc(Br)cc1	inconclusive: 29.1 µM [rising, single point]	–
COc1ccc(NC(=O)c2cccnc2N2CCCC2)cc1	inconclusive: 23.1 µM [cytotoxic, single point]	–
NS(=O)(=O)c1ccc(N2N=C(c3ccc(Br)cc3)CC2c2ccc(F)cc2)cc1 (stereo not given)	inconclusive: 18.4 µM [cytotoxic, single point]	–
O=C(O)CCCCCCCCc1cn(Cc2ccc(C(=O)c3ccccc3)cc2)nn1	active: 4.61 µM and inconclusive: 23.1 µM [cytotoxic, partial curve, poor fit]	–
Cc1cc(C)n(-c2nc(NCC3CCCO3)c3c4c(sc3n2)COC(C)(C)C4)n1 (stereo not given)	active: 16.4 µM	–
CC1(C(=O)Nc2ccc3c(c2)OCCO3)CN(S(C)(=O)=O)CC(=O)N1CCCn1ccnc1 (stereo not given)	–	inconclusive: 1.03%
Cc1ccc(C(=O)N(Cc2nnc(-c3ccccc3Cl)o2)C2CC2)o1	–	inactive: -1.15%
CC/C(=N/Nc1cccc(Cl)c1)c1cnnc(SC)n1	inconclusive: 29.1 µM [cytotoxic, single point]	–
COc1ccccc1NC(=O)CSc1nnc(-c2ccc(C)cc2)o1	inconclusive: 32.6 µM [cytotoxic, single point]	–
CN(Cc1ccc(Cl)s1)C(=O)CCl	inconclusive: 29.1 µM [cytotoxic, single point]	–
CCCCOc1ccc(C(=O)Nc2cccc(C)n2)cc1	inconclusive: 18.4 µM [cytotoxic, single point]	–
NS(=O)(=O)c1ccc(N=Nc2nc3[nH]cnc(=S)c3[nH]2)cc1	active: 1.16 µM	–
O=C(C1CCC1)N1CCN(c2ccc(Cl)cc2)CC1	–	inactive: -13.6%
COCCCNC(=O)CCc1c(C)nc2c(c(C)nn2-c2ccc(C)cc2)c1C	–	inactive: 13.6%
C[C@@H]1CN([C@@H](C)CO)C(=O)c2cccc(NC(=O)C3CCCCC3)c2O[C@@H]1CN(C)C(=O)NC1CCCCC1	–	inactive: 8.57%
FC(F)(F)C(Oc1nc(NC2CCCCC2)nc(N2CCOCC2)n1)C(F)(F)F	inconclusive: 5.8 µM [rising, partial curve, poor fit]	–
Cc1occc1C(=O)N/N=C/C=C/c1ccccc1[N+](=O)[O-]	inconclusive: 18.4 µM [cytotoxic, single point]	–
O=C(c1cccc(S(=O)(=O)N2CCCC2)c1)N1CCN(c2ccccc2F)CC1	–	inactive: -1.53%

Compound	Potency	activity change, negative = cytotoxic
CC(=O)c1ccc(NC(=O)Nc2sc3nc4n(c(=O)c3c2C)CCC(C)CC4)cc1 (stereo not given)	–	inactive: -3.49%
CCC(c1nnnn1-c1ccc2c(c1)OCCO2)N1CCN(c2ccc(F)cc2)CC1 (stereo not given)	inconclusive: 3.66 µM [cytotoxic, full curve, poor fit]	–
COc1ccc(NC(=O)c2c(Nc3ccccc3)sc(C(=O)c3ccc(F)cc3)c2N)cc1	active: 2.06 µM	–
Nc1ncnc2c1nc(Cl)n2[C@@H]1O[C@H](CO)[C@@H](O)[C@@H]1O	inconclusive: 3.66 µM [cytotoxic, partial curve, poor fit]	–
CCn1c(SCC(=O)Nc2ccc3c(c2)OCO3)nc2c(c1=O)SC(C)C2 (stereo not given)	–	inconclusive: -9.05%
O=C(O)c1ccccc1N1C(=O)C2C3c4ccccc4C(Br)(c4ccccc43)C2C1=O (stereo not given)	–	inactive: -5.68%
COc1ccc(C[C@H]2CN3C(=NC[C@@H]3Cc3ccccc3)N2CCNC(=O)c2ccc(C)c(Br)c2)cc1	inconclusive: 29.1 µM [cytotoxic, single point]	–
N#CCC(=O)N/N=C/c1ccc(N2N=C(c3ccccc3)CC2c2ccccc2)cc1 (stereo not given)	inconclusive: 25.9 µM [cytotoxic, single point]	–
Cc1ccc(NC(=O)Cc2ccccc2F)cc1S(=O)(=O)N1CCCCCC1	inconclusive: 18.4 µM [cytotoxic, single point]	–
CC(C)c1ccc(CNC(=O)c2ccc(N3CCCC3)c(NC(=O)NCc3ccccc3)c2)cc1	inconclusive: 29.1 µM [cytotoxic, single point]	–
Cc1ccc(-n2nc3c(c2NC(=O)c2ccc4c(c2)OCO4)CSC3)cc1	inconclusive: 18.4 µM [cytotoxic, single point]	–
COc1ccc(-c2nnc(NC(=O)c3ccc(S(=O)(=O)N4CCCc5ccccc54)cc3)o2)cc1	inconclusive: 8.91 µM [cytotoxic, partial curve]	–
CCNC(=O)NC(=O)C(C)Oc1ccc(Br)cc1Br (stereo not given)	–	inactive: -0.723%
Cc1[nH]c2ccc(-c3nnc(SCC(=O)c4ccccc4F)o3)cc2c1C	–	inactive: -3.37%
CCOC(=O)C1=C(CP(=O)(c2ccccc2)c2ccccc2)NC(=O)NC1c1ccc(OC)cc1 (stereo not given)	–	inactive: 2.67%
COc1ccc(-n2nc(C(=O)Nc3ccc(C(C)=O)cc3)nc2-c2ccccc2)cc1	inconclusive: 29.1 µM [cytotoxic, single point]	–
Cc1ccccc1CC1SC(N)=NC1=O (stereo not given)	–	inactive: 1.71%
COc1ccc(S(=O)(=O)Nc2cc3c4c(oc3c3ccccc23)CCCC4=O)cc1	active: 7.31 µM	–
Cc1ccc(NC(=O)c2nc[nH]c2C(=O)NC2CCN(C(=O)OC(C)(C)C)CC2)cc1	–	inactive: 0%
Cn1c(=O)c2c(nc(NCCc3ccccc3)n2Cc2ccc(F)cc2)n(C)c1=O	inconclusive: 20.6 µM [cytotoxic, single point]	–
CN1CCN(c2ccnc(N(C)CCCCCCN)n2)CC1	inconclusive: 29.1 µM [cytotoxic, single point]	–
Cc1ccc(C(=O)Nc2cccc3[nH]c(C(F)(F)F)nc23)cc1	active: 16.4 µM	–
CCc1ccc(NC(=O)C2C3CCC(O3)C2C(=O)O)cc1 (stereo not given)	inconclusive: 20.6 µM [cytotoxic, single point]	–
Cc1ccc(C(=O)N/C(=C\c2ccco2)C(=O)NCCN2CCOCC2)cc1C	inconclusive: 32.6 µM [rising, partial curve, poor fit]	–

Compound	Potency	activity change, negative = cytotoxic
O=C(/C=C/c1cccs1)NC(=S)NNC(=O)c1ccccc1O	active: 2.59 µM	–
O=C(CSc1nc2c([nH]c3ccccc32)c(=O)n1-c1ccccc1F)Nc1cccc(C(F)(F)F)c1	active: 14.6 µM	–
CCOc1ccc(S(=O)(=O)N2CCN(Cc3nc4ccc(C)cc4o3)CC2)cc1	–	inactive: -3.16%
O=C(C[n+]1ccncc1)c1ccc(Br)cc1	–	inactive: 9.54%
Cc1cc(C)c(C)c(S(=O)(=O)NCC(=O)NCC2CCCCC2)c1C	inconclusive: 32.6 µM [rising, partial curve, poor fit]	–
COc1cccc(C2c3[nH]c4ccccc4c3CCN2Cc2cccn2-c2ncccn2)c1 (stereo not given)	inconclusive: 16.4 µM [cytotoxic, single point]	–
O=C1CCN(CCc2ccccc2)CCN1[C@H](COc1ccccc1)Cc1ccccc1	inconclusive: 18.4 µM [cytotoxic, single point] and inconclusive: 29.1 µM [cytotoxic, single point]	–
Cc1ccccc1OCC(O)CN1CCN(CCN2C(=O)c3cccc4cccc(c34)C2=O)CC1 (stereo not given)	inconclusive: 29.1 µM [cytotoxic, single point]	–
COc1ccc(C)cc1NC(=O)CCCN1C(=S)NC(C)(C)CC1C (stereo not given)	inconclusive: 29.1 µM [rising, single point]	–
Cc1nc(C)c(C(=O)OCC(=O)NCc2ccccc2Cl)s1	–	inactive: -14.1%
COc1ccc(N=C2SC(CC(=O)Nc3ccccc3)C(=O)N2CCc2ccccn2)cc1 (stereo not given)	inconclusive: 29.1 µM [cytotoxic, single point]	–
Cc1cc(NS(=O)(=O)c2ccc(NC(=O)Cc3ccc(Cl)c(Cl)c3)cc2)no1	–	inactive: 12.5%
CC(C)(C)c1ccc(-c2nnc(SC3CCOC3=O)n2Cc2ccccc2)cc1 (stereo not given)	–	inactive: 9.3%
CCSc1nnc(NC(=O)c2cc(=O)c3cc(C)ccc3o2)s1	–	inactive: 18%
COC(=O)c1c(NC(=O)C2c3ccccc3Oc3ccccc32)sc2c1CCC(C(C)(C)C)C2 (stereo not given)	–	inactive: 1.49%
O=C(Nc1ccc(-c2nc3cccnc3s2)cc1)c1cccnc1Cl	inconclusive: 5.17 µM [rising, partial curve, poor fit]	–
Brc1ccc2c(c1)C(c1ccc(N3CCOCC3)cc1)=NNC(c1cccs1)=N2	–	inactive: 3.72%
O=[N+]([O-])c1ccccc1S(=O)(=O)NCc1ccccn1	–	inactive: 10.8%
COc1cccc(CNC(=O)CCn2cnc3ccccc3c2=O)c1	–	inactive: 13%
Cc1c(C(C)(C)O)[nH]c2ccc(C(F)(F)F)cc12	inconclusive: 29.1 µM [cytotoxic, single point]	–
CNC[C@@H]1Oc2c(NS(C)(=O)=O)cccc2C(=O)N([C@@H](C)CO)C[C@H]1C	inconclusive: 18.4 µM [rising, partial curve, poor fit]	–
S=C(Nc1ccccc1)N1CCCN1c1ccccc1	–	inactive: -7.1%

Compounds from the list above that contain a CF3 group:
Compound	Potency	activity change, negative = cytotoxic
FC(F)(F)C(Oc1nc(NC2CCCCC2)nc(N2CCOCC2)n1)C(F)(F)F	inconclusive: 5.8 µM [rising, partial curve, poor fit]	–
Cc1ccc(C(=O)Nc2cccc3[nH]c(C(F)(F)F)nc23)cc1	active: 16.4 µM	–
O=C(CSc1nc2c([nH]c3ccccc32)c(=O)n1-c1ccccc1F)Nc1cccc(C(F)(F)F)c1	active: 14.6 µM	–
Cc1c(C(C)(C)O)[nH]c2ccc(C(F)(F)F)cc12	inconclusive: 29.1 µM [cytotoxic, single point]	–
